The values below come from article PMC10436556.

Chains of the proteins cited; added tags and fusions are not shown. Lines headed by an entry give the natural chain unless they say otherwise; changes in a name come on top.
UniProt Q14653: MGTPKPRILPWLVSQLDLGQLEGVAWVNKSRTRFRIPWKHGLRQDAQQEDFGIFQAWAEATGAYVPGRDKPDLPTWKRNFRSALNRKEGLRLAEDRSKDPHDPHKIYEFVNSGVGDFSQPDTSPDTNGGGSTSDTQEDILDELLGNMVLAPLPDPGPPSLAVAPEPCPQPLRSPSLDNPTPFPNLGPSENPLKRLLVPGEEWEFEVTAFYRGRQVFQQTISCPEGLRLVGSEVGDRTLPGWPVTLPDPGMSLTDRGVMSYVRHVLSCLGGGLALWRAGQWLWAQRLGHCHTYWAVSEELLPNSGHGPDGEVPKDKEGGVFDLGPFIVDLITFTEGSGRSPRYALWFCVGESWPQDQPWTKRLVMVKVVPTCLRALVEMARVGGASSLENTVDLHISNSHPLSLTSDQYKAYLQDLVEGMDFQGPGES
UniProt O15527, whole entry: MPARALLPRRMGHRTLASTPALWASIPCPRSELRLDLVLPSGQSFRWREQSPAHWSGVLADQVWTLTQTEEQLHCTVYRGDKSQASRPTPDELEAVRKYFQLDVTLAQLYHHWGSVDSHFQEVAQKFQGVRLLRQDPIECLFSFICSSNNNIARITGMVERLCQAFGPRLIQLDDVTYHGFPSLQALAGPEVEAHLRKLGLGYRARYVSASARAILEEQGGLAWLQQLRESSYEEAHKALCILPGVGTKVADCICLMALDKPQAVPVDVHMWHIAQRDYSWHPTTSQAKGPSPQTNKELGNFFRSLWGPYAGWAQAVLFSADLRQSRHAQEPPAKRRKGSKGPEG

The exact form of at least one protein or probe is not confirmed. For some of these results: At least one verdict rests on a figure or table, not on a statement of the authors.

What all share (test): EMSA
Data set [1] has as its target His-IRF3 (UniProt Q14653). The following applies: without OGG1, WCL/NE: 10 mM Tris-HCl pH 7.5, 1 mM EDTA, 50 mM NaCl, 2 mM DTT, 5% glycerol, 0.5% NP-40, BSA, poly(I:C), RT 20 min, His-IRF3: 10 mM Tris pH 7.5, 50 mM KCl, 1 mM DTT, recombinant protein, protein details: His.
Data set [2] has as its target OGG1 (recombinant, ProSpec ENZ-253) (UniProt O15527). The following applies: WCL/NE: 10 mM Tris-HCl pH 7.5, 1 mM EDTA, 50 mM NaCl, 2 mM DTT, 5% glycerol, 0.5% NP-40, BSA, poly(I:C), RT 20 min, His-IRF3: 10 mM Tris pH 7.5, 50 mM KCl, 1 mM DTT, commercial protein, letters put together from the description.
The subject of data set [3] is OGG1 (recombinant, ProSpec ENZ-253) + His-IRF3. As to conditions: higher complex with both proteins, WCL/NE: 10 mM Tris-HCl pH 7.5, 1 mM EDTA, 50 mM NaCl, 2 mM DTT, 5% glycerol, 0.5% NP-40, BSA, poly(I:C), RT 20 min, His-IRF3: 10 mM Tris pH 7.5, 50 mM KCl, 1 mM DTT, commercial protein, protein details: His, letters put together from the description.

With “CTGTGTTTTCACTTTTCCTACATCAGCTGGGACTGCCCTTCTGTCAGGGATAA (double strand) [Pr1]”, the binding result is listed as “binds” in data set [1] (8-oxoG at top position 29, letters put together from the description); “binds” in data set [2] (8-oxoG at top position 29); “binds” in data set [3] (8-oxoG at top position 29).

On to “CTGTGTTTTCACTTTTCCTACATCAGCTGGGACTGCCCTTCTGTCAGGGATAA (double strand) [Pr0]”, for which the binding result in data set [1] is on record as “binds”.

Regarding “CTGTGTTTTCACTTTTCCTACATCAGCTGGGACTGCCCTTCTGTCAGGGATAA (double strand) [Pr2]”, the binding result in data set [1] (8-oxoG at top position 48, letters put together from the description) is “binds”; in data set [2] (8-oxoG at top position 48), “binds”; in data set [3] (8-oxoG at top position 48), “binds”.
